Results: PubChem BioAssay AID250 (DTP/NCI, 2004)
The list shows only some results of the screen, not a fair sample: it is rich in T/C values a quarter to a half above the control, in often repeated tests (any T/C) and in doses without a T/C. Further doses and runs are listed elsewhere. T/C is the treated group as % of the vehicle group. Some doses have a count of surviving animals in place of a T/C: the source holds a T/C of zero for them, seemingly a mark for toxic or unscored doses. Some survivor counts are full or nearly so, which does not show that the dose was tolerated: survival well below the control is almost never listed, so the zero probably covers shortened survival too. Counts of survivors are from the toxicity check (mostly the fifth day) where no day follows; animals may have died later. Schedules are NCI's codes, read here as Q, the interval in days (D) or hours (H), X, the number of doses. Some schedules carry Z or #; the key to these is not given. Some doses were run more than once; their values stand side by side, smallest first.

Test system: BDF1 mice, L1210 leukemia sc, survival T/C
Assay: NCI In Vivo Anticancer Drug Screen. Data for tumor model L1210 Leukemia (subcutaneous) in B6D2F1 (BDF1) mice
Conditions: higher T/C = longer survival
Procedure: The antitumor activity of compounds was measured in mice bearing transplantable tumors. Survival or tumor size were measured and the results are expressed as the measurement made in the treated group (T) divided by the measurement made in the vehicle treated control group (C). The tumor model used in this assay is L1210 Leukemia (subcutaneous) in B6D2F1 (BDF1) mice

[1] = T/C endpoint: median survival time, dose: 3.0 mg/kg/injection, schedule: Q01DX Z (sc), vehicle: methylcellulose (MC)
[2] = T/C endpoint: median survival time, dose: 3.0 mg/kg/injection, schedule: Q01DX Z (sc), vehicle: olive oil, sesame oil, peanut oil
[3] = T/C endpoint: median survival time, dose: 5.0 mg/kg/injection, schedule: Q01DX Z (sc), vehicle: methylcellulose (MC)
[4] = T/C endpoint: median survival time, dose: 5.0 mg/kg/injection, schedule: Q01DX Z (sc), vehicle: olive oil, sesame oil, peanut oil
[5] = T/C endpoint: median survival time, dose: 8.4 mg/kg/injection, schedule: Q01DX Z (sc), vehicle: methylcellulose (MC)
[6] = T/C endpoint: median survival time, dose: 8.4 mg/kg/injection, schedule: Q01DX Z (sc), vehicle: olive oil, sesame oil, peanut oil
[7] = T/C endpoint: median survival time, dose: 14.0 mg/kg/injection, schedule: Q01DX Z (sc), vehicle: methylcellulose (MC)
[8] = T/C endpoint: median survival time, dose: 14.0 mg/kg/injection, schedule: Q01DX Z (sc), vehicle: olive oil, sesame oil, peanut oil
[9] = T/C endpoint: median survival time, dose: 23.0 mg/kg/injection, schedule: Q01DX Z (sc), vehicle: methylcellulose (MC)
[10] = T/C endpoint: median survival time, dose: 23.0 mg/kg/injection, schedule: Q01DX Z (sc), vehicle: olive oil, sesame oil, peanut oil
[11] = T/C endpoint: median survival time, dose: 39.0 mg/kg/injection, schedule: Q01DX Z (sc), vehicle: methylcellulose (MC)
[12] = T/C endpoint: median survival time, dose: 39.0 mg/kg/injection, schedule: Q01DX Z (sc), vehicle: olive oil, sesame oil, peanut oil
[13] = T/C endpoint: median survival time, dose: 23.0 mg/kg/injection, schedule: Q01DX Z (sc), vehicle: saline
[14] = T/C endpoint: median survival time, dose: 39.0 mg/kg/injection, schedule: Q01DX Z (sc), vehicle: saline
[15] = T/C endpoint: median survival time, dose: 65.0 mg/kg/injection, schedule: Q01DX Z (sc), vehicle: saline
[16] = T/C endpoint: median survival time, dose: 108.0 mg/kg/injection, schedule: Q01DX Z (sc), vehicle: methylcellulose (MC)
[17] = T/C endpoint: median survival time, dose: 180.0 mg/kg/injection, schedule: Q01DX Z (sc), vehicle: methylcellulose (MC)
[18] = T/C endpoint: median survival time, dose: 300.0 mg/kg/injection, schedule: Q01DX Z (sc), vehicle: methylcellulose (MC)
[19] = T/C endpoint: median survival time, dose: 500.0 mg/kg/injection, schedule: Q01DX Z (sc), vehicle: methylcellulose (MC)
[20] = T/C endpoint: median survival time, dose: 65.0 mg/kg/injection, schedule: Q01DX Z (sc), vehicle: methylcellulose (MC)

For CC[n+]1c(-c2ccccc2)c2cc(N)ccc2c2ccc(N)cc21, the survivor count (T/C endpoint: median survival time, dose: 180.0 mg/kg/injection, schedule: Q01DX Z (sc), vehicle: carboxymethylcellulose (CMC)) was 1 of 8 and the survivor count (T/C endpoint: median survival time, dose: 300.0 mg/kg/injection, schedule: Q01DX Z (sc), vehicle: carboxymethylcellulose (CMC)) was 0 of 8.

For COc1ccc2nc3cc(Cl)ccc3c(NCCN(CCCl)CCCl)c2c1, the survivor count (T/C endpoint: median survival time, dose: 0.65 mg/kg/injection, schedule: Q01DX Z (sc), vehicle: methylcellulose (MC)) was 4 of 10, the survivor count (T/C endpoint: median survival time, dose: 0.65 mg/kg/injection, schedule: Q01DX Z (sc), vehicle: olive oil, sesame oil, peanut oil) was 4 of 10 and the survivor count (T/C endpoint: median survival time, dose: 1.08 mg/kg/injection, schedule: Q01DX Z (sc), vehicle: methylcellulose (MC)) was 3 of 10 and 5 of 10. For the same compound, the survivor count (T/C endpoint: median survival time, dose: 1.08 mg/kg/injection, schedule: Q01DX Z (sc), vehicle: olive oil, sesame oil, peanut oil) was 2 of 10, the survivor count (T/C endpoint: median survival time, dose: 1.8 mg/kg/injection, schedule: Q01DX Z (sc), vehicle: methylcellulose (MC)) was 3 of 10 and 4 of 10 and the survivor count (T/C endpoint: median survival time, dose: 1.8 mg/kg/injection, schedule: Q01DX Z (sc), vehicle: olive oil, sesame oil, peanut oil) was 6 of 10. For the same compound, the survivor count [1] was 4 of 10 and 6 of 10, the survivor count [2] was 2 of 10 and the survivor count [3] was 3 of 10 and 5 of 10. The survivor count [4] was 2 of 10, the survivor count [5] was 1 of 10 and 5 of 10 and the survivor count [6] was 4 of 10. For the same compound, the survivor count [7] was 2 of 10 and 6 of 10, the survivor count [8] was 2 of 10 and the survivor count [9] was 2 of 10 and 5 of 10. For the same compound, the survivor count [10] was 3 of 10, the survivor count [11] was 3 of 10 and the survivor count [12] was 2 of 10.

Cc1cc(N)c2cc(NC(=O)CCCCCCCCC(=O)Nc3ccc4nc(C)cc(N)c4c3)ccc2n1 was tested, and the survivor count [13] was 4 of 10, the survivor count [14] was 4 of 10 and the survivor count [15] was 2 of 10. The survivor count (T/C endpoint: median survival time, dose: 108.0 mg/kg/injection, schedule: Q01DX Z (sc), vehicle: saline) was 2 of 10 and the survivor count (T/C endpoint: median survival time, dose: 180.0 mg/kg/injection, schedule: Q01DX Z (sc), vehicle: saline) was 1 of 10.

For COc1ccc2cc1Oc1ccc(cc1)C[C@H]1c3cc(c(OC)cc3CCN1C)Oc1c(OC)c(OC)cc3c1[C@H](C2)N(C)CC3, the survivor count (T/C endpoint: median survival time, dose: 300.0 mg/kg/injection, schedule: Q01DX009 (sc), vehicle: methylcellulose (MC)) was 5 of 8 and the survivor count (T/C endpoint: median survival time, dose: 600.0 mg/kg/injection, schedule: Q01DX009 (sc), vehicle: methylcellulose (MC)) was 1 of 8.

C[C@]12C=CC(=O)C=C1CC[C@@H]1[C@@H]2[C@@H](O)C[C@@]2(C)[C@H]1CC[C@]2(O)C(=O)CO was tested, and the survivor count [16] was 4 of 10, the survivor count [17] was 4 of 10 and the survivor count [18] was 5 of 10. The survivor count [19] was 4 of 10 and the survivor count (T/C endpoint: median survival time, dose: 833.0 mg/kg/injection, schedule: Q01DX Z (sc), vehicle: methylcellulose (MC)) was 5 of 10.

In the case of C=CC(CO)N1CC1 (stereo not given), the survivor count (T/C endpoint: median survival time, dose: 3.0 mg/kg/injection, schedule: Q01DX Z (sc), vehicle: saline) is reported as 3 of 10, the survivor count (T/C endpoint: median survival time, dose: 4.7 mg/kg/injection, schedule: Q01DX Z (sc), vehicle: saline) is reported as 6 of 10 and the survivor count (T/C endpoint: median survival time, dose: 5.0 mg/kg/injection, schedule: Q01DX Z (sc), vehicle: saline) is reported as 2 of 10. The survivor count (T/C endpoint: median survival time, dose: 8.4 mg/kg/injection, schedule: Q01DX Z (sc), vehicle: saline) was 2 of 10 and 5 of 10, the survivor count (T/C endpoint: median survival time, dose: 13.0 mg/kg/injection, schedule: Q01DX Z (sc), vehicle: saline) was 2 of 10 and the survivor count (T/C endpoint: median survival time, dose: 14.0 mg/kg/injection, schedule: Q01DX Z (sc), vehicle: saline) was 1 of 10 and 6 of 10. The survivor count (T/C endpoint: median survival time, dose: 21.6 mg/kg/injection, schedule: Q01DX Z (sc), vehicle: saline) was 4 of 10, the survivor count [13] was 6 of 10 and the survivor count [14] was 2 of 10. The survivor count (T/C endpoint: median survival time, dose: 60.0 mg/kg/injection, schedule: Q01DX Z (sc), vehicle: saline) was 0 of 10, the survivor count [15] was 0 of 10 and the survivor count (T/C endpoint: median survival time, dose: 100.0 mg/kg/injection, schedule: Q01DX Z (sc), vehicle: saline) was 0 of 10. The survivor count (T/C endpoint: median survival time, dose: 180.0 mg/kg/injection, schedule: Q01DX001 (sc), vehicle: saline) was 0 of 10 and the survivor count (T/C endpoint: median survival time, dose: 180.0 mg/kg/injection, schedule: Q## X Z (sc), vehicle: saline) was 0 of 10.

In the case of CC(=O)Nc1ccc2c(Nc3ccc(NS(C)(=O)=O)cc3)c3ccccc3nc2c1, the survivor count (T/C endpoint: mean survival time, dose: 25.0 mg/kg/injection, schedule: Q01DX009 (sc), vehicle: saline) is reported as 10 of 10.

In the case of CCOC(=O)NP(=O)(N1CC1(C)C)N1CC1(C)C (stereo not given), the survivor count (T/C endpoint: median survival time, dose: 360.0 mg/kg/injection, schedule: Q01DX Z (sc), vehicle: methylcellulose (MC)) is reported as 10 of 10, the survivor count (T/C endpoint: median survival time, dose: 600.0 mg/kg/injection, schedule: Q01DX Z (sc), vehicle: methylcellulose (MC)) is reported as 10 of 10 and the survivor count (T/C endpoint: median survival time, dose: 1000.0 mg/kg/injection, schedule: Q01DX Z (sc), vehicle: methylcellulose (MC)) is reported as 2 of 10.

In the case of ClCCN(CCCl)c1ccc(CCNc2ccnc3cc(Cl)ccc23)cc1, the survivor count [1] is reported as 6 of 10, the survivor count [2] is reported as 3 of 10 and the survivor count [3] is reported as 6 of 10. The survivor count [4] was 1 of 10, the survivor count [5] was 6 of 10 and the survivor count [6] was 4 of 10. The survivor count [8] was 1 of 10, the survivor count [9] was 5 of 10 and the survivor count [10] was 3 of 10. The survivor count [11] was 3 of 10 and 6 of 10, the survivor count [12] was 5 of 10 and the survivor count [20] was 3 of 10. The survivor count (T/C endpoint: median survival time, dose: 65.0 mg/kg/injection, schedule: Q01DX Z (sc), vehicle: olive oil, sesame oil, peanut oil) was 5 of 10, the survivor count [16] was 4 of 10 and 5 of 10 and the survivor count (T/C endpoint: median survival time, dose: 108.0 mg/kg/injection, schedule: Q01DX Z (sc), vehicle: olive oil, sesame oil, peanut oil) was 3 of 10 and 6 of 10. The survivor count [17] was 5 of 10 and the survivor count (T/C endpoint: median survival time, dose: 180.0 mg/kg/injection, schedule: Q01DX Z (sc), vehicle: olive oil, sesame oil, peanut oil) was 4 of 10.

COc1cc([C@@H]2c3cc4c(cc3[C@H](O)[C@H]3COC(=O)[C@H]23)OCO4)cc(OC)c1OC was tested, and the survivor count [11] was 6 of 10, the survivor count [20] was 3 of 10 and the survivor count [16] was 0 of 10. For the same compound, the survivor count [17] was 0 of 10.

With C[C@]12CCC(=O)C=C1CC[C@@H]1[C@@H]2C(=O)C[C@@]2(C)[C@H]1CC[C@]2(O)C(=O)CO the survivor count [19] was 6 of 10.

For CN(C)c1ccc(/C=C/c2ccc3ccccc3[n+]2C)cc1, the survivor count [5] was 3 of 10 and the survivor count [7] was 4 of 10.

For NS(=O)(=O)c1ncnc2nc[nH]c12, the survivor count [17] was 3 of 8, the survivor count [18] was 0 of 8 and the survivor count [19] was 0 of 8.

O=C(NO)c1ccncc1 was tested, and the survivor count (T/C endpoint: median survival time, dose: 400.0 mg/kg/injection, schedule: Q01DX009 (ip), vehicle: water) was 9 of 10, the survivor count (T/C endpoint: median survival time, dose: 600.0 mg/kg/injection, schedule: Q01DX009 (ip), vehicle: water) was 1 of 10 and the survivor count (T/C endpoint: median survival time, dose: 800.0 mg/kg/injection, schedule: Q01DX009 (ip), vehicle: water) was 0 of 10.
